Residue numbers refer to the chain shown, from its start. Results are given in words; binding and its absence hold for the method and conditions named. Binding seen in cells or lysates may run through a third protein. Some results given as binding are weak or reduced against the parent protein; the word gives no strength. Tags and fused reporters may be left off the sequences shown.
Assays:
[1] = molecular target: T1, FLAG-PER2 expressed in HCT116 p53+/+ cells (human) (UniProt O15055); assay: co-IP
T1 sequence: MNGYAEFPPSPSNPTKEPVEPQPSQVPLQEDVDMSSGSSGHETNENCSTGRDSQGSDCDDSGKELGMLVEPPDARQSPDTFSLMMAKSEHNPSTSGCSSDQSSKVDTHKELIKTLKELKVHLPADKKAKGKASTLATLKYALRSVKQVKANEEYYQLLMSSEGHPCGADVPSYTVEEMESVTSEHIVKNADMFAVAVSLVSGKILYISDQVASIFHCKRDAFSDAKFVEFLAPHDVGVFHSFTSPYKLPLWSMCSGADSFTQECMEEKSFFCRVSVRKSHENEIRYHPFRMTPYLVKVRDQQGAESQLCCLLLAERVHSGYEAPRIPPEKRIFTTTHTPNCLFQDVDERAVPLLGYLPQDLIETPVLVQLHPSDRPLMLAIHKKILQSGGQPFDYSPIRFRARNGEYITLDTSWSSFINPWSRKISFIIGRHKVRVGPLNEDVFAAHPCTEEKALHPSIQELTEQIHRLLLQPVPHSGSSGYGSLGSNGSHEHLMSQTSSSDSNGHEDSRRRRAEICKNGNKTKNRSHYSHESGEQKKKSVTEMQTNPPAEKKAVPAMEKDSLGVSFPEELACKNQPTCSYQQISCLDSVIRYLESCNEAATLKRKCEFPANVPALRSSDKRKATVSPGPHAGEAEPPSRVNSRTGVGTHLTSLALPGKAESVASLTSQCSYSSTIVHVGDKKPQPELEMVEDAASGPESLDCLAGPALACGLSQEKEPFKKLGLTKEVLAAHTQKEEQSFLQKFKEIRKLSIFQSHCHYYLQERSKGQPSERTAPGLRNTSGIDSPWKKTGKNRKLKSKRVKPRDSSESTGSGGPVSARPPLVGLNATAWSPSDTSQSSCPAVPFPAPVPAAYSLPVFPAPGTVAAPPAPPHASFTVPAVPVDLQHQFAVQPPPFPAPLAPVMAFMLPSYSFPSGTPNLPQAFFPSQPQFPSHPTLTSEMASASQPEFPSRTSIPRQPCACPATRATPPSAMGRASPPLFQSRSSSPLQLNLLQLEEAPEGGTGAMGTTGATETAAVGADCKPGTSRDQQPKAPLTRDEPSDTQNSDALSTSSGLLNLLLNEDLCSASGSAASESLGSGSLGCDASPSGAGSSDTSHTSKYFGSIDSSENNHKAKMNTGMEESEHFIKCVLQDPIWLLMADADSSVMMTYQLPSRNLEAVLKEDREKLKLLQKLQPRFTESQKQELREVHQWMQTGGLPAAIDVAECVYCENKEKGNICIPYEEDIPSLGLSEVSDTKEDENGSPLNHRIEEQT

The chains behind the UniProt entries cited, without tags or fusion partners.
UniProt Q00987: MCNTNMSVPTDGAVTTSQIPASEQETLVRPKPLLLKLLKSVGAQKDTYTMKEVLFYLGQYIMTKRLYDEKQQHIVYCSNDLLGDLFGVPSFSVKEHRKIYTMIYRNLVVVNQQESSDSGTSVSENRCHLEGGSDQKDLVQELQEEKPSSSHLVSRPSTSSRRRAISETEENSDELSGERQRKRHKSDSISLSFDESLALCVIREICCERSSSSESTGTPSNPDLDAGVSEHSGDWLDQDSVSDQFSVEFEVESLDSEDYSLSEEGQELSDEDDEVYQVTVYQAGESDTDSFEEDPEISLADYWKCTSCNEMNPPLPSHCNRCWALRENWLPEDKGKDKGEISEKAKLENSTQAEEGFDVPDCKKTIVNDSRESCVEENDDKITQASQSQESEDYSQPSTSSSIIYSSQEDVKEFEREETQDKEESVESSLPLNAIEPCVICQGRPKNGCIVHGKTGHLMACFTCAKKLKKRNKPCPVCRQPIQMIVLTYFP

[2] = molecular target: T2, FLAG-PER2(S662A) expressed in HCT116 p53+/+ cells (human) (UniProt O15055); assay: co-IP
T2 sequence: T1 sequence with S662A

binding [1]: binds
binding [2]: binds
Substance: endogenous MDM2 of HCT116 p53+/+ cells (from UniProt Q00987 1-491)

Reference: publication doi:10.1101/286708
